Assay results published in patent US20250059284A1.
Numbering of substitutions follows the chain as printed. These are yes or no findings as the source states them, for the method shown. Binding calls can cover weak binding; strength is not graded here.

Legend:
[1] = target: cynomolgus Gal10-His (WGS isoform) (cynomolgus); test: summary table, row Cyno cross-reactivity
[2] = target: cynomolgus Gal10-His (WGS isoform) (cynomolgus); test: SPR Biacore 3000; two concentrations on captured cynomolgus Gal10-His

B1: g23H09 human Fab (Fab, V domains shown)
VH: EVQLLESGGGLVQPGGSLRLSCAASGFTFRSYDMSWVRQAPGKGLEWVSAIAQFQHWTYYADSVKGRFTISRDNSKNTLYLQMNSLRAEDTAVYYCATTHGIGTLGFGSWGQGTLVTVSS
VL: SYELTQPLSVSVALGQTARITCDGNNIGSKSAQWYQQKPGQAPVLVIYADEYRPEGIPERFSGSNSGNTATLTISRAQAGDEADYYCQVWDGSAAVFGGGTQLTVL
- binding [1]: binds
- binding [2]: binds

B2: g24F02_N53A human Fab (Fab, V domains shown)
VH: EVQLLESGGGLVQPGGSLRLSCAASGFTFSSYAMSWVRQAPGKGLEWVSAINAGGGSTSYADSVKGRFTISRDNSKNTLYLQMNSLRAEDTAVYYCAKGLRVGVLGFDYWGQGTLVTVSS
VL: B1 VL
- binding [1]: binds
- binding [2]: binds

B3: g24F02 human Fab (Fab, V domains shown)
VH: B2 VH with A53N
VL: B1 VL
- binding [2]: binds
